These are yes or no findings as the source states them, for the method shown. In cells and extracts the contact can be indirect. Some binding calls cover weakened binding; strength is not graded here.
Molecular target: T1, flightless I (human (endogenous in HaCaT and HFF)) (UniProt Q13045)
T1 sequence: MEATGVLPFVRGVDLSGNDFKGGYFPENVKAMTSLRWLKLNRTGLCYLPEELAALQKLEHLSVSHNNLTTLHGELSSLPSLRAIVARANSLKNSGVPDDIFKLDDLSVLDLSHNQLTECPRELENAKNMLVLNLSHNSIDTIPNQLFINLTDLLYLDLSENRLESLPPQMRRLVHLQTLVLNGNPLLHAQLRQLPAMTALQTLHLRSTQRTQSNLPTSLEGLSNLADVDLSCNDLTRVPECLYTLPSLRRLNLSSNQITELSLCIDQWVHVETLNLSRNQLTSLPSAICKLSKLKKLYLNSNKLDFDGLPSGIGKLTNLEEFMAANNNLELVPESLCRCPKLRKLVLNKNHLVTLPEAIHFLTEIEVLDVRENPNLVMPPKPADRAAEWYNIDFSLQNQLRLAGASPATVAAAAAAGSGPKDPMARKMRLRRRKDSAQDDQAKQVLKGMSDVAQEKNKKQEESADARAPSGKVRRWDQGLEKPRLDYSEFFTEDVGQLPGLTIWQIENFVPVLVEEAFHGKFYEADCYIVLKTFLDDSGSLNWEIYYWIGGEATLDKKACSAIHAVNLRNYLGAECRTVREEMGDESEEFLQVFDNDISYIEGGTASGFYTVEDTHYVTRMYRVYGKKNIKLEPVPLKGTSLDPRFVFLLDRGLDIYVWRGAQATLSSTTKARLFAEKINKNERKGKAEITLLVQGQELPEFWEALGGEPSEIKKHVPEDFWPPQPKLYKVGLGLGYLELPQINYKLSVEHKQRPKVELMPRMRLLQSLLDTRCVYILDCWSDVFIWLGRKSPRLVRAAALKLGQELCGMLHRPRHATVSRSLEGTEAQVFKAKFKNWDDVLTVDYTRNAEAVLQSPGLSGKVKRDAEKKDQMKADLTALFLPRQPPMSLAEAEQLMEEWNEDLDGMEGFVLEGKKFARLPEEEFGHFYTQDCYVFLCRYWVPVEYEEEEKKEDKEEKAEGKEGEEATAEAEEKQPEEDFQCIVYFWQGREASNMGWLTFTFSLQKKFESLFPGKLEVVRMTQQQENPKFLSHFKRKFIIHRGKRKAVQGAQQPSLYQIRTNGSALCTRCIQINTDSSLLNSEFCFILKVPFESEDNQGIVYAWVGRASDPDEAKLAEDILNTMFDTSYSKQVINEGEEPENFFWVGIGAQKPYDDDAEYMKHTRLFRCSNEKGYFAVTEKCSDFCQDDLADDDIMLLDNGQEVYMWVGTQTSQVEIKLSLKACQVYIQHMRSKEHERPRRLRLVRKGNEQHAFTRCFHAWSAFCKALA
Assay: co-IP; confluent HaCaTs and HFFs, scratch-wounded, migrated 2.5 h; lysis buffer 50 mM Tris, 1 mM EDTA, 50 mM NaCl, 0.1% Triton X-100; Flii or LRRFIP-1 antibodies with protein G-agarose beads overnight at 4 °C; Western blot with Flii or LRRFIP-1 antibody

binding: binds
B1: Leucine-rich repeat flightless-interacting protein-1 (protein, UniProt Q32MZ4 1-808)
chain: MTSPAAAQSREIDCLSPEAQKLAEARLAAKRAARAEAREIRMKELERQQKEEDSERYSRRSRRNTSASDEDERMSVGSRGSLRVEERPEKDFTEKGSRNMPGLSAATLASLGGTSSRRGSGDTSISIDTEASIREIKELNELKDQIQDVEGKYMQGLKEMKDSLAEVEEKYKKAMVSNAQLDNEKTNFMYQVDTLKDMLLELEEQLAESRRQYEEKNKEFEREKHAHSILQFQFAEVKEALKQREEMLEKHGIILNSEIATNGETSDTLNNVGYQGPTKMTKEELNALKSTGDGTLGRASEVEVKNEIVANVGKREILHNTEKEQHTEDTVKDCVDIEVFPAGENTEDQKSSEDTAPFLGTLAGATYEEQVQSQILESSSLPENTVQVESNEVMGAPDDRTRTPLEPSNCWSDLDGGNHTENVGEAAVTQVEEQAGTVASCPLGHSDDTVYHDDKCMVEVPQELETSTGHSLEKEFTNQEAAEPKEVPAHSTEVGRDHNEEEGEETGLRDEKPIKTEVPGSPAGTEGNCQEATGPSTVDTQNEPLDMKEPDEEKSDQQGEALDSSQKKTKNKKKKNKKKKSPVPVETLKDVKKELTYQNTDLSEIKEEEQVKSTDRKSAVEAQNEVTENPKQKIAAESSENVDCPENPKIKLDGKLDQEGDDVQTAAEEVLADGDTLDFEDDTVQSSGPRAGGEELDEGVAKDNAKIDGATQSSPAEPKSEDADRCTLPEHESPSQDISDACEAESTERCEMSEHPSQTVRKALDSNSLENDDLSAPGREPGHFNPESREDTRGGNEKGKSKEDCTMS
